Results deposited as PubChem BioAssay AID1159584 (Peter MacCallum Cancer Centre, 2016).

Assay: 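Genes that CDH1-null MCF10A cells selectively depend on to survive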 (primary screen)
Cells: human MCF10A breast epithelial cells, parental and CDH1-null
Reagent: siRNA against human genes
Read-out: 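Cell viability by CellTiter-Glo ATP luminescence, each line scaled to the mean of mock wells across plates, then CDH1-null over parental ratio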
Scale: CDH1-null / parental viability ratio: higher = CDH1-null cells survive relatively better than parental
The deposit covers about 18,000 reagents; below is a random part of them. Not all columns of the deposit are shown. The record does not give: the amount of reagent, the time to read-out.

| Target gene | CDH1-null / parental viability ratio |
| --- | --- |
| PLA2G12A (phospholipase A2 group XIIA) | 0.84 |
| ATG101 (autophagy related 101) | 0.88 |
| TNNI1 (troponin I1, slow skeletal type) | 0.93 |
| MOB3A (MOB kinase activator 3A) | 1.14 |
| FGD4 (FYVE, RhoGEF and PH domain containing 4) | 0.82 |
| TST (thiosulfate sulfurtransferase) | 1 |
| TMUB1 (transmembrane and ubiquitin like domain containing 1) | 0.83 |
| KRT18 (keratin 18) | 0.93 |
| DCTN6 (dynactin subunit 6) | 1.21 |
| APOBEC4 | 0.92 |
| R3HDM2 (R3H domain containing 2) | 0.89 |
| EPHA7 (EPH receptor A7) | 0.76 |
| RHBDL1 (rhomboid like 1) | 1.03 |
| RNF186 (ring finger protein 186) | 0.91 |
| DNAI7 (dynein axonemal intermediate chain 7) | 1.22 |
| CETN3 (centrin 3) | 0.67 |
| STXBP3 (syntaxin binding protein 3) | 1.05 |
| GJB1 (gap junction protein beta 1) | 0.88 |
| LPCAT2 (lysophosphatidylcholine acyltransferase 2) | 0.98 |
| SLC2A9 | 1.19 |
| PALS1 (protein associated with LIN7 1, MAGUK p55 family member) | 0.98 |
| WTAP (WT1 associated protein) | 0.71 |
| HOPX (HOP homeobox) | 0.84 |
| BAG4 (BAG cochaperone 4) | 1 |
| GDF5 (growth differentiation factor 5) | 1.05 |
| MIEN1 (migration and invasion enhancer 1) | 0.96 |
| ORAI3 (ORAI calcium release-activated calcium modulator 3) | 1.32 |
| RGCC (regulator of cell cycle) | 0.88 |
| SLC22A4 | 0.82 |
| CCL17 (C-C motif chemokine ligand 17) | 1.21 |
| DNAJC3 (DnaJ heat shock protein family (Hsp40) member C3) | 0.99 |
| RAB3GAP1 (RAB3 GTPase activating protein catalytic subunit 1) | 1 |

No new results follow: an excerpt of the list.
| Target gene | CDH1-null / parental viability ratio |
| --- | --- |
| TNNI1 (troponin I1, slow skeletal type) | 0.93 |
| MOB3A (MOB kinase activator 3A) | 1.14 |
| FGD4 (FYVE, RhoGEF and PH domain containing 4) | 0.82 |
| TST (thiosulfate sulfurtransferase) | 1 |
| TMUB1 (transmembrane and ubiquitin like domain containing 1) | 0.83 |
| KRT18 (keratin 18) | 0.93 |
| DCTN6 (dynactin subunit 6) | 1.21 |
| APOBEC4 | 0.92 |
| R3HDM2 (R3H domain containing 2) | 0.89 |
| EPHA7 (EPH receptor A7) | 0.76 |
| RHBDL1 (rhomboid like 1) | 1.03 |

The listing continues.
| Target gene | CDH1-null / parental viability ratio |
| --- | --- |
| ERC1 (ELKS/RAB6-interacting/CAST family member 1) | 0.87 |
| AAAS (aladin WD repeat nucleoporin) | 0.98 |
| NIPSNAP1 (nipsnap homolog 1) | 0.81 |
| NEFH (neurofilament heavy chain) | 0.94 |
| ENPP2 (ectonucleotide pyrophosphatase/phosphodiesterase 2) | 0.82 |
| AQR (aquarius intron-binding spliceosomal factor) | 1.07 |
| USP17L9P | 0.75 |
| SAA4 (serum amyloid A4, constitutive) | 1.01 |
| SNCA (synuclein alpha) | 0.64 |
| BBX (BBX high mobility group box domain containing) | 1.27 |
| IER3IP1 (immediate early response 3 interacting protein 1) | 1.31 |
| EMILIN2 (elastin microfibril interfacer 2) | 0.88 |
| JPT1 (Jupiter microtubule associated homolog 1) | 1.16 |
| IFNL1 (interferon lambda 1) | 0.89 |
| H4C2 (H4 clustered histone 2) | 1.08 |
| ADORA2A (adenosine A2a receptor) | 0.86 |
| HORMAD2 (HORMA domain containing 2) | 1.04 |
| PEPD (peptidase D) | 1.26 |
| PNMA3 (PNMA family member 3) | 1.55 |
| ZNF354C (zinc finger protein 354C) | 0.71 |
| DECR1 (2,4-dienoyl-CoA reductase 1) | 0.84 |
| WDR7 (WD repeat domain 7) | 1.14 |
| CRYBG1 (crystallin beta-gamma domain containing 1) | 0.83 |
| IFIT1B (interferon induced protein with tetratricopeptide repeats 1B) | 1.01 |
| TMEM167A (transmembrane protein 167A) | 0.78 |
| ACOT8 (acyl-CoA thioesterase 8) | 0.94 |
| THNSL1 (threonine synthase like 1) | 0.96 |
| CD3E (CD3 epsilon subunit of T-cell receptor complex) | 0.93 |
| TBC1D20 (TBC1 domain family member 20) | 0.96 |
| GTF2F2 (general transcription factor IIF subunit 2) | 1.03 |
| BLTP3A (bridge-like lipid transfer protein family member 3A) | 1.37 |
| ARID5B (AT-rich interaction domain 5B) | 1.05 |
| FXYD3 (FXYD domain containing ion transport regulator 3) | 1.18 |
| PEX10 (peroxisomal biogenesis factor 10) | 0.89 |
| TATDN3 (TatD DNase domain containing 3) | 1.03 |
| BRCA1 (BRCA1 DNA repair associated) | 1.04 |
